# In PMC5120329:
# Results are given in words; binding and its absence hold for the method and conditions named. In cells and extracts the contact can be indirect. Some entries that bind do so weakly or less than the wild type. Tags and fused reporters may be left off the sequences shown.
# T1: GST-fused version of a 706–814 amino-acid region of human Bicaudal D2 (BICD2) (human) (UniProt Q8TD16)
# T1 sequence: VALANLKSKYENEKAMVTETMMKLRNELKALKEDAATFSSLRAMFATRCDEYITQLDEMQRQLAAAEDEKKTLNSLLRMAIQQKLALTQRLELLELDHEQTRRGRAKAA
# B1: N-terminal FLAG-tagged Ryh1 (protein, UniProt P17608 1-201)
# chain: MSENYSFSLRKFKLVFLGEQSVGKTSLITRFMYDQFDNTYQATIGIDFLSKTMYLEDRTVRLQLWDTAGQERFRSLIPSYIRDSSVAIIVYDITNHNSFVNTEKWIEDVRAERGDDVIIVLVGNKTDLADKRQVTQEEGEKKAKELKIMHMETSAKAGHNVKLLFRKIAQMLPGMENVETQSTQMIDVSIQPNENESSCNC
# Target: T1, GST-fused version of a 706–814 amino-acid region of human Bicaudal D2 (BICD2) (human)
# Assay: pull-down; GST-BICD2 immobilised on glutathione beads, incubated 45 min with cleared lysate of fission yeast expressing FLAG-Ryh1 (control and pmk1Δ, grown in YES and starved for glucose); PBS with 10 mM MgCl2 and 0.5% Tween 20; bound Ryh1 detected by anti-FLAG blot; only the target purified
binder,measurement,value
B1,binding,binds
